In publication PMC9063470:

System: MUC 1
Assay: fluorescent strand-displacement aptasensor (RNase H recycling, GO quenching)
Details: 50 ng/mL, negligible signal; 20 mM Tris-HCl, 40 mM KCl, 8 mM MgCl2, 1 mM DTT, pH 7.8; 20 min Ap/P1 + CRP incubation; temperature not stated

Sequence: GGCAGGAAGACAAACATATAATTGAGATCGTTTGATGACTTTGTAAGAGTGTGGAATGGTCTGTGGTGCTGT / AGCACCACAGACCATTCCACACT [CRP aptamer (Ap) presented as Ap/P1 complex]
- binding result: no binding

For at least one entry, the source does not settle the construct or the ends of the probe. A negative result means that nothing was seen under these conditions.
